Measurements as given in patent US11655268B2, “Nucleoside or nucleotide derivatives, and uses thereof” (ST Pharm Co., Ltd., priority 2018, dated 2023).

Legend:
[1] = test system: hCoV (229E); format: cell-based, Human coronavirus hCoV 229E; settings: CC50/EC50
[2] = test system: FIPV; experiment: Cytopathic effect reduction, FIPV in CRFK cells, MTT; format: cell-based, feline infectious peritonitis virus (FIPV); settings: CC50/EC50

| SMILES | SI hCoV (229E) [1] | SI FIPV [2] |
| --- | --- | --- |
| O=C(Nc1ccn([C@@H]2O[C@H](CO)[C@@H](O)C2(F)F)c(=O)n1)c1cccnc1 [Example 1, N-(1-((2R,4R,5R)-3,3-difluoro-4-hydroxy-5-(hydroxymethyl)tetrahydrofuran-2-yl)-2-oxo-1,2-dihydropyrimidin-4-yl)nicotinamide] | >21.74 | 2.24 |
| O=C(Nc1ccn([C@@H]2O[C@H](CO)[C@@H](O)C2(F)F)c(=O)n1)c1ccccn1 [Example 2, N-(1-((2R,4R,5R)-3,3-difluoro-4-hydroxy-5-(hydroxymethyl)tetrahydrofuran-2-yl)-2-oxo-1,2-dihydropyrimidin-4-yl)picolinamide] | >125.0 | >10.99 |
| O=C(Nc1ccn([C@@H]2O[C@H](CO)[C@@H](O)C2(F)F)c(=O)n1)c1ccc(F)cn1 [Example 9, N-(1-((2R,4R,5R)-3,3-difluoro-4-hydroxy-5-(hydroxymethyl)tetrahydrofuran-2-yl)-2-oxo-1,2-dihydropyrimidin-4-yl)-5-fluoropicolinamide] | >41.67 | >5.56 |
| Cc1ccc(C(=O)Nc2ccn([C@@H]3O[C@H](CO)[C@@H](O)C3(F)F)c(=O)n2)nc1 [Example 10, N-(1-((2R,4R,5R)-3,3-difluoro-4-hydroxy-5-(hydroxymethyl)tetrahydrofuran-2-yl)-2-oxo-1,2-dihydropyrimidin-4-yl)-5-methylpicolinamide] | >13.51 | 4.38 |
| Cc1cccnc1C(=O)Nc1ccn([C@@H]2O[C@H](CO)[C@@H](O)C2(F)F)c(=O)n1 [Example 12, N-(1-((2R,4R,5R)-3,3-difluoro-4-hydroxy-5-(hydroxymethyl)tetrahydrofuran-2-yl)-2-oxo-1,2-dihydropyrimidin-4-yl)-3-methylpicolinamide] | >8.20 | – |
| Cc1cccc(C(=O)Nc2ccn([C@@H]3O[C@H](CO)[C@@H](O)C3(F)F)c(=O)n2)n1 [Example 13, N-(1-((2R,4R,5R)-3,3-difluoro-4-hydroxy-5-(hydroxymethyl)tetrahydrofuran-2-yl)-2-oxo-1,2-dihydropyrimidin-4-yl)-6-methylpicolinamide] | >17.24 | – |
